The record followed here is paper PMC8384837.

Substitutions are numbered along the chain they refer to. The list shows a part of the results.

Common to all, as to details: yeast three-hybrid, YBZ-1, SC-Leu-His + 0.5 mM 3-AT, 4 days
Test [1] has as its target T1, PUM1 PUF domain R5-FRY C1007F + Q1011Y (Homo sapiens) (UniProt Q14671).
T1 sequence: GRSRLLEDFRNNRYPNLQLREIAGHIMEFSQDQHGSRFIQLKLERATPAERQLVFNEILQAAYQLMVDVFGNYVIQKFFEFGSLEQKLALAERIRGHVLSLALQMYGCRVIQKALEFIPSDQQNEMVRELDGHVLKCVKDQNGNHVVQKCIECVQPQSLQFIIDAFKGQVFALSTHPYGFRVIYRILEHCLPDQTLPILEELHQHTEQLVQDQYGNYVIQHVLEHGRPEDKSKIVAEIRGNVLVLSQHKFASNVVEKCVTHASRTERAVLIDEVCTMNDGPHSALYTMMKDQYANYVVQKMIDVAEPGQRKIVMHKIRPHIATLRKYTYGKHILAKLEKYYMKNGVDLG

Test [2] has as its target T2, PUM1 PUF domain R5-GGR C1007G + R1008G + Q1011R (Homo sapiens) (UniProt Q14671).
T2 sequence: T1 sequence with F180G, R181G, Y184R

For test [3], the target named is T3, PUM1 PUF domain R5-GPR C1007G + R1008P + Q1011R (Homo sapiens) (UniProt Q14671).
T3 sequence: T1 sequence with F180G, R181P, Y184R

Test [4] deals with T4, PUM1 PUF domain R5-HRP C1007H + Q1011P (Homo sapiens) (UniProt Q14671).
T4 sequence: T1 sequence with F180H, Y184P

Test [5] has as its target T5, PUM1 PUF domain R5-KGG C1007K + R1008G + Q1011G (Homo sapiens) (UniProt Q14671).
T5 sequence: T1 sequence with F180K, R181G, Y184G

Test [6] concerns the target T6, PUM1 PUF domain R5-KGV C1007K + R1008G + Q1011V (Homo sapiens) (UniProt Q14671).
T6 sequence: T1 sequence with F180K, R181G, Y184V

Test [7] has as its target T7, PUM1 PUF domain R5-NGS C1007N + R1008G + Q1011S (Homo sapiens) (UniProt Q14671).
T7 sequence: T1 sequence with F180N, R181G, Y184S

The target of test [8] is T8, PUM1 PUF domain R5-QCR C1007Q + R1008C + Q1011R (Homo sapiens) (UniProt Q14671).
T8 sequence: T1 sequence with F180Q, R181C, Y184R

The target of test [9] is T9, PUM1 PUF domain R5-RAT C1007R + R1008A + Q1011T (Homo sapiens) (UniProt Q14671).
T9 sequence: T1 sequence with F180R, R181A, Y184T

The target of test [10] is T10, PUM1 PUF domain R5-RCR C1007R + R1008C + Q1011R (Homo sapiens) (UniProt Q14671).
T10 sequence: T1 sequence with F180R, R181C, Y184R

For test [11], the target named is T11, PUM1 PUF domain R5-RHF C1007R + R1008H + Q1011F (Homo sapiens) (UniProt Q14671).
T11 sequence: T1 sequence with F180R, R181H, Y184F

The target in test [12] is T12, PUM1 PUF domain R5-RLM C1007R + R1008L + Q1011M (Homo sapiens) (UniProt Q14671).
T12 sequence: T1 sequence with F180R, R181L, Y184M

The target in test [13] is T13, PUM1 PUF domain R5-RMT C1007R + R1008M + Q1011T (Homo sapiens) (UniProt Q14671).
T13 sequence: T1 sequence with F180R, R181M, Y184T

The target in test [14] is T14, PUM1 PUF domain R5-RNV C1007R + R1008N + Q1011V (Homo sapiens) (UniProt Q14671).
T14 sequence: T1 sequence with F180R, R181N, Y184V

The target of test [15] is T15, PUM1 PUF domain R5-RQE C1007R + R1008Q + Q1011E (Homo sapiens) (UniProt Q14671).
T15 sequence: T1 sequence with F180R, R181Q, Y184E

In test [16] the target is T16, PUM1 PUF domain R5-RQI C1007R + R1008Q + Q1011I (Homo sapiens) (UniProt Q14671).
T16 sequence: T1 sequence with F180R, R181Q, Y184I

The target of test [17] is T17, PUM1 PUF domain R5-SAS C1007S + R1008A + Q1011S (Homo sapiens) (UniProt Q14671).
T17 sequence: T1 sequence with F180S, R181A, Y184S

The target in test [18] is T18, PUM1 PUF domain R5-SMG C1007S + R1008M + Q1011G (Homo sapiens) (UniProt Q14671).
T18 sequence: T1 sequence with F180S, R181M, Y184G

For test [19], the target named is T19, PUM1 PUF domain R5-TSR C1007T + R1008S + Q1011R (Homo sapiens) (UniProt Q14671).
T19 sequence: T1 sequence with F180T, R181S, Y184R

Test [20] has as its target T20, PUM1 PUF domain R5-WHG C1007W + R1008H + Q1011G (Homo sapiens) (UniProt Q14671).
T20 sequence: T1 sequence with F180W, R181H, Y184G

As for “GGCUAGAACUAGUGGAUCCCCCGGCGCCCGGCGGCUCGAGCCCGGGUAAGUGUAAAUAGUCUGCAUGCCGCCGGGCGCCAUGCCUGCAGGUCGACUCUAGAAAACAUG”, the binding signal (log2 enrichment (interaction score)) in [1] is -0.75; in test [2] it was -0.59; in [3] it was -0.81; in test [4], -0.95; in [5], -1.12; in [6] it was -0.7. In addition, the binding signal (log2 enrichment (interaction score)) in [7] is -0.7; in [8], -0.65; in [9] it was -1.03; in [10], -0.85; in test [11], -0.81; in [12], -0.64. The binding signal (log2 enrichment (interaction score)) in test [13] is -0.83; in test [14], -0.62; in test [15] it was -0.74; in test [16], -0.7; in test [17] it was -1.85; in [18], -0.63. Further, the values for the binding signal (log2 enrichment (interaction score)) in test [19] and in test [20] were -0.62 and -0.64, respectively.
